Measurements taken from the supplement of paper PMC9233669.
Variants at the background level are over-represented here.

How the values were obtained:
[1] = tested on: biotinyl-Phe-oxazolone; experiment: self-aminoacylation, catalytic enhancement (BFO) (fold over background); higher = more active; k-Seq, kA / k0A0; sequences stand for … in GGGAAUGGAUCCACAUCUACGAAUUC…UUCACUGCAGACUUGACGAAGCUG
Method in brief: (§1)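 Catalytic enhancement equals the median kA over the uncatalyzed rate, the latter read from the low-activity peak of a bimodal Gaussian fit. Values of kA came from fitting each sequence's fraction reacted to a pseudo-first-order model, with 1000 bootstraps. Reacted RNA was captured with streptavidin and quantified by triplicate qPCR and Illumina sequencing after 90 minutes at room temperature with 2–1250 μM biotinyl-aminoacyl-oxazolone and 0.43 μM mutagenized RNA pools bearing a 21-nt variable region.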

[2] = tested on: biotinyl-Ile-oxazolone; experiment: self-aminoacylation, catalytic enhancement (BIO) (fold over background); higher = more active; k-Seq, kA / k0A0; sequences stand for … in GGGAAUGGAUCCACAUCUACGAAUUC…UUCACUGCAGACUUGACGAAGCUG
Method in brief: as §1

[3] = tested on: biotinyl-Met-oxazolone; experiment: self-aminoacylation, catalytic enhancement (BMO) (fold over background); higher = more active; k-Seq, kA / k0A0; sequences stand for … in GGGAAUGGAUCCACAUCUACGAAUUC…UUCACUGCAGACUUGACGAAGCUG
Method in brief: as §1

[4] = tested on: biotinyl-Trp-oxazolone; experiment: self-aminoacylation, catalytic enhancement (BWO) (fold over background); higher = more active; k-Seq, kA / k0A0; sequences stand for … in GGGAAUGGAUCCACAUCUACGAAUUC…UUCACUGCAGACUUGACGAAGCUG
Method in brief: as §1

[5] = tested on: biotinyl-Leu-oxazolone; experiment: self-aminoacylation, catalytic enhancement (BLO) (fold over background); higher = more active; k-Seq, kA / k0A0; sequences stand for … in GGGAAUGGAUCCACAUCUACGAAUUC…UUCACUGCAGACUUGACGAAGCUG
Method in brief: as §1

[6] = tested on: biotinyl-Val-oxazolone; experiment: self-aminoacylation, catalytic enhancement (BVO) (fold over background); higher = more active; k-Seq, kA / k0A0; sequences stand for … in GGGAAUGGAUCCACAUCUACGAAUUC…UUCACUGCAGACUUGACGAAGCUG
Method in brief: as §1

Row | Sequence | self-aminoacylation [1] | self-aminoacylation [2] | self-aminoacylation [3] | self-aminoacylation [4] | self-aminoacylation [5] | self-aminoacylation [6]
1 | CUACUUCAAUCAAGCGGUCUG [Fam1A.1 aminoacylation ribozyme variant] | 0.561 | 0.818 | 0.875 | 0.579 | 0.716 | 0.802
2 | CUACUUCAAUCAAUCGAUCUG [Fam1A.1 aminoacylation ribozyme variant] | 1.37 | 0.746 | 0.613 | 0.772 | 0.545 | 0.627
3 | CUACUUCACACAAGCGGUCUG [Fam1A.1 aminoacylation ribozyme variant] | 0.75 | 1.03 | 0.816 | 1.01 | 0.817 | 0.993
4 | CUACUUCAUACAAGCGGUCUG [Fam1A.1 aminoacylation ribozyme variant] | 1.07 | 0.791 | 0.734 | 0.774 | 0.734 | 0.942
5 | CUACUUCAUACAAUCGGUCAG [Fam1A.1 aminoacylation ribozyme variant] | 0.985 | 0.738 | 0.644 | 0.721 | 0.662 | 0.699
6 | CUACUUCAUACCAUCGGUCUG [Fam1A.1 aminoacylation ribozyme variant] | 0.796 | 0.861 | 0.651 | 0.473 | 0.534 | 0.775
7 | CUACUUCCAACAACCGGUCUG [Fam1A.1 aminoacylation ribozyme variant] | 0.667 | 0.863 | 0.881 | 0.931 | 0.797 | 0.66
8 | CUACUUCCAACAAUCGGACUG [Fam1A.1 aminoacylation ribozyme variant] | 0.62 | 0.818 | 0.693 | 0.607 | 0.714 | 0.791
9 | CUACUUCCAACAAUCGGCCUG [Fam1A.1 aminoacylation ribozyme variant] | 0.988 | 1.64 | 1.48 | 1.46 | 1.27 | 1.5
10 | CUACUUCCAACAAUCGGUCCG [Fam1A.1 aminoacylation ribozyme variant] | 1.43 | 0.836 | 0.865 | 0.8 | 0.839 | 0.773
11 | CUACUUCGAACAAUCGGUCGG [Fam1A.1 aminoacylation ribozyme variant] | 2.37 | 1.02 | 1.34 | 0.974 | 1.41 | 0.922
12 | CUACUUCGAACAGUCGGUCUG [Fam1A.1 aminoacylation ribozyme variant] | 0.433 | 0.799 | 0.742 | 0.71 | 0.98 | 0.796
13 | CUACUUCUAAAAAUCGGUCUG [Fam1A.1 aminoacylation ribozyme variant] | 0.482 | 0.669 | 0.738 | 0.523 | 0.657 | 0.694
14 | CUACUUCUAACAAUCGGUCAG [Fam1A.1 aminoacylation ribozyme variant] | 0.851 | 0.78 | 0.664 | 0.626 | 0.732 | 0.707
15 | CUACUUCUAACAAUCGGUCUG [Fam1A.1 aminoacylation ribozyme variant] | 0.785 | 0.658 | 0.608 | 0.532 | 0.585 | 0.693
16 | CUACUUCUAACAAUCGUUCUG [Fam1A.1 aminoacylation ribozyme variant] | 0.684 | 0.514 | 0.52 | 0.411 | 0.491 | 0.561
17 | CUACUUCUAACAUUCGGUCUG [Fam1A.1 aminoacylation ribozyme variant] | 0.835 | 0.89 | 0.89 | 0.668 | 0.949 | 0.828
18 | CUACUUGAAACAACCGGUCUG [Fam1A.1 aminoacylation ribozyme variant] | 0.529 | 1.07 | 1.18 | 1.24 | 0.805 | 1.01
19 | CUACUUGAAACAAUCGGUCUU [Fam1A.1 aminoacylation ribozyme variant] | 0.509 | 0.871 | 0.94 | 0.567 | 0.745 | 0.799
20 | CUACUUGAAACAAUCGUUCUG [Fam1A.1 aminoacylation ribozyme variant] | 0.5 | 0.635 | 0.614 | 0.379 | 0.645 | 0.561
21 | CUACUUGAAGCAAUCGGUCUG [Fam1A.1 aminoacylation ribozyme variant] | 0.771 | 0.931 | 1.02 | 0.5 | 1 | 0.994
22 | CUACUUGUAACAAUCGGUCUG [Fam1A.1 aminoacylation ribozyme variant] | 0.824 | 0.651 | 0.806 | 0.573 | 0.678 | 0.658
23 | CUACUUUAAACAAGCGGUCUG [Fam1A.1 aminoacylation ribozyme variant] | 0.844 | 0.961 | 0.921 | 0.618 | 1.06 | 0.955
